Results are given in words; binding and its absence hold for the method and conditions named. Binding seen in cells or lysates may run through a third protein. Some results given as binding are weak or reduced against the parent protein; the word gives no strength.
Molecular target: recombinant RelA homodimer, Q04206
Test: co-immunoprecipitation with anti-RelA antisera
Conditions: remark: other sources report otherwise

binding: binds
B1: IκBα, P25963 1-317 (protein)
chain: MFQAAERPQEWAMEGPRDGLKKERLLDDRHDSGLDSMKDEEYEQMVKELQEIRLEPQEVPRGSEPWKQQLTEDGDSFLHLAIIHEEKALTMEVIRQVKGDLAFLNFQNNLQQTPLHLAVITNQPEIAEALLGAGCDPELRDFRGNTPLHLACEQGCLASVGVLTQSCTTPHLHSILKATNYNGHTCLHLASIHGYLGIVELLVSLGADVNAQEPCNGRTALHLAVDLQNPDLVSLLLKCGADVNRVTYQGYSPYQLTWGRPSTRIQQQLGQLTLENLQMLPESEDEESYDTESEFTEFTEDELPYDDCVFGGQRLTL

— patent US7452977
